The results in this text go back to patent publication US6911443B2 (Bayer Aktiengesellschaft, priority 2000, dated 2005).

The target in this test is human Syk (GST-Syk) (Homo sapiens, UniProt P43405). In words: Syk tyrosine kinase inhibitory assay. Format: biochemical. The following applies: read-out: Activity grade; Table 13.

The structures given here were assigned with low confidence; some may be wrong. Where only a bound is given, the exact number is not on record here.

In the case of `COc1ccc(-c2cc3nccn3c(Sc3ccc(CCC(=O)O)cc3C(N)=O)n2)cc1OC` [Example 14-35], the IC50 is < 500 nM.
